Assay results reported in article PMC4074974.
For at least one entry, the source does not settle the construct or the ends of the probe. For part of these data: A negative result means that nothing was seen under these conditions. For part of these data: A weaker result is weaker than the reference pair of the same experiment. For part of these data: At least one verdict rests on a figure or table, not on a statement of the authors.

Chains of the proteins cited; added tags and fusions are not shown. A change or cut given only in a name is not applied to a line headed by its entry. A line that says so, or that is headed by a name, gives the form on record, which may keep a tag or linker.
UniProt Q9UQR0: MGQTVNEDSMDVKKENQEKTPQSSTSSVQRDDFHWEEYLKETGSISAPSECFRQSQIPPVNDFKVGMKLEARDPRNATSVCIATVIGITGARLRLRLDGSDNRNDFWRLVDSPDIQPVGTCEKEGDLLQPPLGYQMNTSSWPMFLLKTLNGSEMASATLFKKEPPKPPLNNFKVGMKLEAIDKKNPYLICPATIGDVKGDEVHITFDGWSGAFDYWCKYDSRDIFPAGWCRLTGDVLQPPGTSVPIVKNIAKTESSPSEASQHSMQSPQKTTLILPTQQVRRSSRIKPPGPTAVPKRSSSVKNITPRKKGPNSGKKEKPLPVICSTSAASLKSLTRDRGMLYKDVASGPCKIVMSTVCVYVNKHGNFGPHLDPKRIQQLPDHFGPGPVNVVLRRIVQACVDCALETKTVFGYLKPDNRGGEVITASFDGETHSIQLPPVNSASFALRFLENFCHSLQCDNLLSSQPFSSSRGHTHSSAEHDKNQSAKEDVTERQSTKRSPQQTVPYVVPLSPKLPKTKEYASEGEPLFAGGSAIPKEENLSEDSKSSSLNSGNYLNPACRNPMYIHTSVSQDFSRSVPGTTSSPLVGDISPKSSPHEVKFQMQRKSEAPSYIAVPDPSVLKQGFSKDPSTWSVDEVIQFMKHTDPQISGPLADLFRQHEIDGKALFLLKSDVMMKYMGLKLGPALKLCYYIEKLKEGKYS
SCML2 fragment with RBR (Fig. 1D left) (human), one chain, as listed by the source: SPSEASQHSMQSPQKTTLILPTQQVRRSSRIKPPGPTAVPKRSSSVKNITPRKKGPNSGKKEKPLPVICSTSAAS

How the values were obtained:
[1] = target: SCML2 fragment lacking RBR (deltaRBR) (human) (UniProt Q9UQR0); assay: pull-down; conditions: pull-down: 20 mM Tris pH 7.9, 1 mM MgCl2, 0.05% IGEPAL CA-630, RNase inhibitor, 1 h 4 C, recombinant protein, protein details: GST
[2] = system: SCML2 fragment with RBR (Fig. 1D left) (human); assay: pull-down; conditions: pull-down: 20 mM Tris pH 7.9, 1 mM MgCl2, 0.05% IGEPAL CA-630, RNase inhibitor, 1 h 4 C, recombinant protein, protein details: GST
[3] = letters put together from the description

“GGCAAGCTGGTCATTAACGGCAAGACTCTGAAGGGCGAGACCACCACCAAGGCCGTGGACGCAGAAACCGCTGAAAAGGCATTCAAGCAGTACGCTAACGACCC [sDNA]”: no binding ([1]; single-stranded DNA); binds more weakly ([2]; discriminated between RNA and DNA, single-stranded DNA).

“GGCAAGCTGGTCATTAACGGCAAGACTCTGAAGGGCGAGACCACCACCAAGGCCGTGGACGCAGAAACCGCTGAAAAGGCATTCAAGCAGTACGCTAACGACCC (double strand) [dsDNA (sDNA + complement)]”: no binding [1]; binds more weakly ([2]; discriminated between RNA and DNA).

“GGGCAAGCUGGUCAUUAACGGCAAGACUCUGAAGGGCGAGACCACCACCAAGGCCGUGGACGCAGAAACCGCUGAAAAGGCAUUCAAGCAGUACGCUAACGACCC [sRNA (synthetic 100 nt)]”: no binding [1, 3]; binds [2, 3].
